PubChem BioAssay AID504786, Drosophila RNAi Screening Center | 2011
The deposit covers about 21,000 reagents; this is an unselected part of those that have a named target and a result. 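Primary screen; positive scores mean lost reporter signal, so the sign may be inverted from the usual convention.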 Names joined by + are all predicted targets of the reagent.

Assay: 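Knock-downs reducing HIF reporter induction by the iron chelator DFO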 (primary screen)
Cells: Drosophila S2 cells with a stable HIF luciferase reporter
Knock-down reagent: long dsRNA against Drosophila genes, about 0.2 µg dsRNA per well of a 384-well plate
Duration: three days of knock-down, then 20 h of DFO before reading
Challenge: desferrioxamine (DFO) at 100 µM, an iron chelator that mimics hypoxia, for 20 h
Measured: 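Firefly luciferase driven by the mouse ldh-a hypoxia-response element, measured after 20 h of 100 µM DFO; z-scores per plate, higher means more signal lost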
Direction: z-score: higher = stronger loss of HIF reporter signal

Knock-down of Ser [DRSC16856] gave: z-score, replicate 1 = -0.3; z-score, replicate 2 = -0.4.
Knock-down of Pp1-87B [DRSC16794] came out at: z-score, replicate 1 = 1.1; z-score, replicate 2 = 0.9.
Against ttm3 [DRSC03736], the entry reads z-score, replicate 1 = -0.3; z-score, replicate 2 = 0.1.
Knock-down of mRpS21 [DRSC12965] gave: z-score, replicate 1 = 0.4; z-score, replicate 2 = 0.2.
Depletion of Blm [DRSC16911] gave: z-score, replicate 1 = 0; z-score, replicate 2 = -0.6.
For Prosbeta5R1 [DRSC04581] the deposit lists z-score, replicate 1 = 0.9; z-score, replicate 2 = 0.3.
Silencing of Ppa [DRSC04598] came out at: z-score, replicate 1 = -0.3; z-score, replicate 2 = -0.3.
With knock-down of Pburs [DRSC02483] the results were z-score, replicate 1 = -0.2; z-score, replicate 2 = -0.1.
Against beat-VI [DRSC14474], the entry reads z-score, replicate 1 = -0.4; z-score, replicate 2 = -0.9.
Depletion of beat-VI [DRSC14727] came out at: z-score, replicate 1 = -0.3; z-score, replicate 2 = -0.4.
Liprin-alpha [DRSC02132] scored z-score, replicate 1 = -0.1; z-score, replicate 2 = 0.
For phu [DRSC16390] the deposit lists z-score, replicate 1 = -0.1; z-score, replicate 2 = -0.3.
Against comm2 [DRSC09881], the values are z-score, replicate 1 = 1.1; z-score, replicate 2 = -0.5.
comm2 [DRSC10877] showed z-score, replicate 1 = -0.4; z-score, replicate 2 = -0.6.
After knock-down of Jhe [DRSC07174], the screen gave z-score, replicate 1 = -0.3; z-score, replicate 2 = -0.4.
Knock-down of TTLL3B [DRSC02133] came out at: z-score, replicate 1 = -0.4; z-score, replicate 2 = 0.
Depletion of caps [DRSC11333] came out at: z-score, replicate 1 = -0.2; z-score, replicate 2 = 0.
CG12241 [DRSC14481] gave z-score, replicate 1 = -0.1; z-score, replicate 2 = -0.3.
After knock-down of Tehao [DRSC03449], the record shows z-score, replicate 1 = -0.2; z-score, replicate 2 = -0.1.
For Crz [DRSC16615], the values are z-score, replicate 1 = -0.4; z-score, replicate 2 = -0.3.
With knock-down of CG40245 (retired record) [DRSC21012] the results were z-score, replicate 1 = 0; z-score, replicate 2 = -0.1.
For zen [DRSC12632] the deposit lists z-score, replicate 1 = -0.4; z-score, replicate 2 = -0.4.
With knock-down of CG7544 [DRSC07023] the results were z-score, replicate 1 = -0.3; z-score, replicate 2 = -0.3.
Against CG15534 [DRSC15070], the entry reads z-score, replicate 1 = -0.5; z-score, replicate 2 = 0.1.
With knock-down of hui [DRSC05977] the results were z-score, replicate 1 = -0.1; z-score, replicate 2 = 0.5.
With knock-down of PGRP-LD + Pmi [DRSC10512], the screen gave z-score, replicate 1 = -0.1; z-score, replicate 2 = 0.4.
Against PGRP-LD + Pmi [DRSC10513], the values are z-score, replicate 1 = -0.4; z-score, replicate 2 = -0.7.

An excerpt taken from the entries so far:
caps [DRSC11333] | z-score, replicate 1: -0.2; z-score, replicate 2: 0
CG12241 [DRSC14481] | z-score, replicate 1: -0.1; z-score, replicate 2: -0.3
Tehao [DRSC03449] | z-score, replicate 1: -0.2; z-score, replicate 2: -0.1
Crz [DRSC16615] | z-score, replicate 1: -0.4; z-score, replicate 2: -0.3
CG40245 (retired record) [DRSC21012] | z-score, replicate 1: 0; z-score, replicate 2: -0.1
